Several values for one entry are separate records, joined by “and”; a condition that tells them apart may be missing. Equal entries are not always repeated. The list shows a part of the results, in another mix than the full data. Results with a measured potency or affinity are listed apart. Activity calls are given as the source filed them.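 How the source made its calls: active means viability at or below 80% at any tested concentration, marking the compound as toxic; inactive means the rest.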
Experiment: THP-1 cell cytotoxicity, dose response, cytotoxicity control for Vif-APOBEC3G degradation inhibitor project, THP-1 cells (AID 1117359)
Conditions: THP-1 viability, CellTiter-Glo luminescence, 72 h; at 40 µM (top of the series)

SMILES	viability
Cc1c2cc(O)c(=O)cc-2oc2cc(O)c(O)cc12	inactive: 90.6% and inactive: 103%

From PubChem BioAssay AID1117359 (Southern Research Institute, 2015)
